Reference: PubChem BioAssay AID1347075 (National Center for Advancing Translational Sciences (NCATS), 2019)
“And” between values parts separate entries of the source, which are not always exact repeats. Equal values may be shown once. Among all 400,000 compounds or so, about 5,500 (1.4%) were called active. This list was built around the results that the source calls inconclusive (neither active nor inactive); the mix of calls is not that of the screen. The call rests on the fitted dose curve; in most records, active means well fitted cell-killing curve with a large enough effect; inconclusive means small, poorly fitted or top-dose-only effect, or effect the other way; inactive means flat fitted curve, though single readings scatter. A potency beside an inconclusive call is a rough fit, not a confirmed value.

assay: qHTS assay for MDR1-selective chemotherapeutics: Primary screen using the parental adenocarcinoma cell KB-3-1; details: KB-3-1 viability, CellTiter-Glo ATP luminescence, 72 h; activity change, negative = cytotoxic: at 46.1 µM (top of the series); further: nearly all actives have a fitted effect of over 60% in size
Method in brief: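 72 h, 37 °C compound treatment of KB-3-1 parental cells; CellTiter-Glo added, 10 min, luminescence read. Data corrected against DMSO-only plates and normalized before curve fitting.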
On the % scale 0 is the no-effect control and ±100 the full control effect; potency means the concentration at half of the fitted maximal effect.

| Compound | Potency | activity change, negative = cytotoxic |
| --- | --- | --- |
| C/C(=N\Nc1nc(C)c(C)s1)c1ccc([N+](=O)[O-])cc1 | inconclusive: 23.1 µM [cytotoxic, single point] |  |
| CCCn1c(SCC(=O)N2CCc3ccccc3C2)nc(O)cc1=O | inconclusive: 29.1 µM [cytotoxic, single point] |  |
| CC(C)(C)OC(=O)NCCCCCNC(=O)c1[nH]cnc1C(=O)Nc1cccc(Cl)c1 | inconclusive: 20.6 µM [cytotoxic, single point] |  |
| O=C1c2cccc3c(O)ccc(c23)C(=O)N1c1ccc(Cl)cc1 | inconclusive: 23.1 µM [cytotoxic, single point] |  |
| N#CC1=C(N)C(C#N)(C#N)[C@H](c2c(F)cccc2F)[C@H]2CC3(CC=C12)OCCO3 | active: 6.51 µM |  |
| Cc1ccccc1-c1csc(C(O)c2cccc(Cl)c2)n1 (configuration not stated) | inconclusive: 20.6 µM [cytotoxic, single point] |  |
| COc1ccc(-c2oc3ccccc3c(=O)c2OC(=O)c2ccc(C)cc2)cc1 | inconclusive: 29.1 µM [cytotoxic, single point] |  |
| C1=Nc2ccccc2/C1=C/c1ccccc1 | inconclusive: 29.1 µM [rising, single point] |  |
| CC(Oc1ccc(F)cc1)C(=O)Nc1ccccc1C(=O)NC1CC1 (configuration not stated) | inconclusive: 29.1 µM [rising, single point] |  |
| Cc1cc(C)c2oc(C(=O)Nc3ccc(S(=O)(=O)Nc4ncccn4)cc3)cc(=O)c2c1 | inactive |  |
| O=C(C[C@@H]1C/C=C/CC[C@H](Cc2ccc(F)cc2)C(=O)OC[C@@H](Cc2ccccc2)NC1=O)N[C@H](CO)Cc1ccccc1 | inconclusive: 20.6 µM [cytotoxic, single point] |  |
| Cc1cccc(NC(=O)CSc2nc3nc4c(cc3c(=O)n2-c2ccccc2)CCCC4)c1 | inconclusive: 18.4 µM [rising, single point] |  |
| Cc1ccc(C(=O)N/C(=C/c2ccco2)C(=O)NCCCn2ccnc2)cc1 | inactive |  |
| CCC[C@@H](CN[C@@H](CNC)C(C)C)NCCCCc1ccccc1 | inconclusive: 29.1 µM [cytotoxic, single point] |  |
| O=C1NC[C@H](CCCCN2C[C@H](Cc3ccccc3)N(CCC3CCCCC3)C(=O)C2=O)N(CCc2ccccc2)C1=O | inconclusive: 29.1 µM [cytotoxic, single point] |  |
| Cc1nnsc1-c1c(C(=O)Oc2ccccc2)c(C)nn1-c1ccccc1 | inconclusive: 20.6 µM [cytotoxic, single point] |  |
| COc1cc(C2C(C(N)=O)=C(C)Nc3nc(CCCO)nn32)cc(OC)c1OC (configuration not stated) |  | inconclusive: 11.8% |
| Cc1ccc([C@H]2C[C@H](n3cc(C4CC4)nn3)[C@@H](O)CN2CC2CCCCC2)cc1 | inconclusive: 29.1 µM [cytotoxic, single point] |  |
| O=S1(=O)CCOC[C@H](CC2CCCCC2)N1Cc1ccc(F)cc1 | active: 16.4 µM and inconclusive: 20.6 µM [cytotoxic, single point] |  |
| O=C(Cn1nc(N2CCN(c3ccccc3)CC2)ccc1=O)NCc1ccccc1F |  | inconclusive: -1.65% |
| O=C(c1cccc(S(=O)(=O)NCc2ccccc2)c1)N1CCN(c2ccccc2)CC1 | inconclusive: 5.8 µM [cytotoxic, full curve, poor fit] |  |

Arranged by length of the SMILES (smallest number first): some entries from above

| Compound | Potency | activity change, negative = cytotoxic |
| --- | --- | --- |
| C1=Nc2ccccc2/C1=C/c1ccccc1 | inconclusive: 29.1 µM [rising, single point] |  |
| COc1cc(C2C(C(N)=O)=C(C)Nc3nc(CCCO)nn32)cc(OC)c1OC (configuration not stated) |  | inconclusive: 11.8% |
| CC(C)(C)OC(=O)NCCCCCNC(=O)c1[nH]cnc1C(=O)Nc1cccc(Cl)c1 | inconclusive: 20.6 µM [cytotoxic, single point] |  |

Next part

| Compound | Potency | activity change, negative = cytotoxic |
| --- | --- | --- |
| CCN(CC)c1ccc(/C=N/NC(=O)c2ccccn2)cc1 | inconclusive: 29.1 µM [cytotoxic, single point] |  |
| Cc1ccc(-n2c(SCC(=O)Nc3cccc(S(N)(=O)=O)c3)nc3ccccc32)cc1 | active: 14.6 µM |  |
| COc1ccccc1NC(=O)C1CCN(C(=O)NCc2ccccc2)CC1 | inactive |  |
| Cc1ccc(S(=O)(=O)N2CCC(C(=O)OC(C)C(=O)NC3CCCCC3C)CC2)cc1 (configuration not stated) | inactive |  |
| COc1ccc2nc(SCC(=O)NC3CCCc4ccccc43)[nH]c2c1 (configuration not stated) | inconclusive: 29.1 µM [cytotoxic, single point] |  |
| CCOC(=O)C1CCN(C(=O)c2ccc3c(=O)n4nc(Nc5ccccc5CC)sc4nc3c2)CC1 | inconclusive: 3.66 µM [cytotoxic, partial curve, poor fit] |  |
| COc1ccc(-c2nc(CN3CCC(C(=O)NCc4ccc(C)cc4)CC3)c(C)o2)cc1OC | inconclusive: 23.1 µM [cytotoxic, single point] |  |
| Cc1cccc(NC(=O)CSc2nnc(CNC(=O)c3ccc(S(=O)(=O)N(C)C)cc3)n2-c2cccc(C)c2)c1 | inconclusive: 29.1 µM [rising, single point] |  |
| COc1ccc(CNCCCn2cnc(C(=O)Nc3ccc(C)c(C)c3)n2)cc1 | inactive |  |
| COC(=O)c1cc(S(=O)(=O)N2CCCCCC2)c[nH]1 | inactive |  |
| FC(F)(F)c1cccc(-c2cc3nc(NC4CCCCC4)ccn3n2)c1 | inconclusive: 29.1 µM [cytotoxic, single point] |  |
| COc1ccc(C2=Nn3c(nnc3-c3ccccc3Cl)SC2)cc1OCC1CC1 | active: 2.91 µM |  |
| c1ccc(NC(c2ccccc2)c2ccncc2)cc1 (configuration not stated) | inconclusive: 23.1 µM [cytotoxic, single point] |  |
| Cc1ccc(NC(=O)COc2ccccc2C#N)cc1S(=O)(=O)N1CCCCCC1 | inconclusive: 14.6 µM [cytotoxic, partial curve] |  |
| COc1ccc(CCNC(=O)C(=O)NCC(c2cccs2)S(=O)(=O)c2cccs2)cc1 (configuration not stated) | inconclusive: 25.9 µM [cytotoxic, single point] |  |
| Cc1cccc(NC(=O)Cc2nc(-c3c[nH]c(C(=O)N4CCCC4)c3)cs2)c1 | inactive |  |
| Cc1ccc(NC(=S)Nc2c(C)n(C)n(-c3ccccc3)c2=O)cc1Cl | inconclusive: 0.0259 µM [rising, full curve] |  |
| COc1ccc(OC)c(/C(C)=N/Nc2ccc(C(=O)O)cc2)c1 | inactive |  |
| Cc1cc(F)ccc1S(=O)(=O)Nc1nc2ccccc2nc1Cl | inconclusive: 13 µM [cytotoxic, single point] |  |
| O=C(CSC1=NS(=O)(=O)c2cc(Cl)ccc2N1)Nc1cccc(F)c1 | inactive |  |
| N=C1SC(c2ccccc2)C(=O)N1c1ncc(Cc2ccccc2)s1 (configuration not stated) | inconclusive: 23.1 µM [cytotoxic, partial curve, poor fit] |  |
